Measurements reported in PubChem BioAssay AID504786 (Drosophila RNAi Screening Center, 2011)
The screen tested about 21,000 reagents; below is an unselected part of those with a known target gene and a result. 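Primary screen; positive scores mean lost reporter signal, so the sign may be inverted from the usual convention.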 Names joined by + are all predicted targets of the reagent.

Screen: 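Positive regulators of HIF-driven reporter output in Drosophila cells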 (primary screen)
Cell system: Drosophila S2 cells with a stable HIF luciferase reporter
Knock-down reagent: long dsRNA against Drosophila genes, about 0.2 µg dsRNA per well of a 384-well plate
Duration: three days of knock-down, then 20 h of DFO before reading
Challenge: desferrioxamine (DFO) at 100 µM, an iron chelator that mimics hypoxia, for 20 h
Measurement: 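Firefly luciferase driven by the mouse ldh-a hypoxia-response element, measured after 20 h of 100 µM DFO; z-scores per plate, higher means more signal lost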
Scale: z-score: higher = stronger loss of HIF reporter signal

After knock-down of CG7220 [DRSC05235] the results were z-score, replicate 1 = -0.3; z-score, replicate 2 = -0.3.
Knock-down of CG7220 [DRSC07018] resulted in: z-score, replicate 1 = -0.4; z-score, replicate 2 = -0.2.
Depletion of CG9522 [DRSC20197] gave: z-score, replicate 1 = -0.4; z-score, replicate 2 = -0.2.
CG7646 [DRSC11232] showed z-score, replicate 1 = -0.1; z-score, replicate 2 = -0.3.
Against Drsl4 [DRSC08034], the values are z-score, replicate 1 = -0.1; z-score, replicate 2 = 0.6.
With knock-down of Atg10 + CG18853 + CG12822 [DRSC20757], the screen gave z-score, replicate 1 = -0.8; z-score, replicate 2 = -0.4.
For LanB1 [DRSC03360], the entry reads z-score, replicate 1 = -0.3; z-score, replicate 2 = 0.9.
Tie [DRSC08104] gave z-score, replicate 1 = 1.1; z-score, replicate 2 = 0.3.
Silencing of Tie [DRSC08702] resulted in: z-score, replicate 1 = 2.8; z-score, replicate 2 = 1.3.
For CG30034 (retired record) [DRSC05288], the values are z-score, replicate 1 = -0.2; z-score, replicate 2 = -0.3.
Against Past1 [DRSC16784] the deposit lists z-score, replicate 1 = -0.4; z-score, replicate 2 = -0.4.
After knock-down of CG2698 [DRSC15447] the results were z-score, replicate 1 = 0.3; z-score, replicate 2 = -0.2.
After knock-down of RtGEF [DRSC03604], the record shows z-score, replicate 1 = -0.1; z-score, replicate 2 = -0.1.
Against glob2 [DRSC12560], the entry reads z-score, replicate 1 = -0.3; z-score, replicate 2 = -0.2.
Depletion of Fmo-1 [DRSC04328] gave: z-score, replicate 1 = -0.2; z-score, replicate 2 = -0.3.
Cyp313a3 [DRSC16626] showed z-score, replicate 1 = -0.4; z-score, replicate 2 = -0.2.
Depletion of CG14569 [DRSC11730] resulted in: z-score, replicate 1 = -0.3; z-score, replicate 2 = -0.3.
With knock-down of CG10345 [DRSC14138] the results were z-score, replicate 1 = -0.3; z-score, replicate 2 = -0.4.
With knock-down of CG12111 [DRSC17808] the results were z-score, replicate 1 = -0.3; z-score, replicate 2 = -0.6.
For CG32277 [DRSC08196], the values are z-score, replicate 1 = -0.4; z-score, replicate 2 = -0.8.
CG13088 [DRSC02192] gave z-score, replicate 1 = -0.2; z-score, replicate 2 = -0.5.
Cp18 [DRSC11120] scored z-score, replicate 1 = -0.2; z-score, replicate 2 = -0.2.
For CG13407 [DRSC14583], the entry reads z-score, replicate 1 = 0.1; z-score, replicate 2 = -0.1.
Against Ulp1 [DRSC19339] the deposit lists z-score, replicate 1 = -0.3; z-score, replicate 2 = 0.
For Tsen2 [DRSC01557] the deposit lists z-score, replicate 1 = -0.5; z-score, replicate 2 = -0.1.
Knock-down of Stip1 [DRSC00756] came out at: z-score, replicate 1 = -0.2; z-score, replicate 2 = 0.2.
CG15706 [DRSC06577] showed z-score, replicate 1 = -0.2; z-score, replicate 2 = -0.1.
Depletion of Rme-8 [DRSC07054] resulted in: z-score, replicate 1 = -0.4; z-score, replicate 2 = 0.4.
Depletion of CG4409 [DRSC06869] came out at: z-score, replicate 1 = -0.2; z-score, replicate 2 = -0.2.
Depletion of CG31064 [DRSC14756] resulted in: z-score, replicate 1 = 0.2; z-score, replicate 2 = 0.7.
CG31064 [DRSC15941] showed z-score, replicate 1 = -0.2; z-score, replicate 2 = -0.1.
After knock-down of CG31064 [DRSC15942] the results were z-score, replicate 1 = -0.5; z-score, replicate 2 = 0.3.
Knock-down of CG31064 [DRSC15943] resulted in: z-score, replicate 1 = -0.3; z-score, replicate 2 = -0.5.
Against CG42553 [DRSC08356], the entry reads z-score, replicate 1 = -0.3; z-score, replicate 2 = 0.1.
Against CG7289 [DRSC00697], the entry reads z-score, replicate 1 = -0.3; z-score, replicate 2 = -0.2.
Against CG12171 [DRSC12200], the values are z-score, replicate 1 = -0.4; z-score, replicate 2 = -0.6.
Knock-down of colt [DRSC00808] gave: z-score, replicate 1 = -0.4; z-score, replicate 2 = 0.
Knock-down of CG7632 [DRSC11842] gave: z-score, replicate 1 = -0.2; z-score, replicate 2 = 0.
Silencing of tho2 [DRSC00646] gave: z-score, replicate 1 = -0.1; z-score, replicate 2 = 1.9.
With knock-down of CG6724 [DRSC02983], the screen gave z-score, replicate 1 = -0.3; z-score, replicate 2 = -0.3.
